# Drug screen on melanoma cell lines: cell count

Drug key:
CHIR-265 (0.08 µM): Cn1c(Nc2ccc(C(F)(F)F)cc2)nc2cc(Oc3ccnc(-c4ncc(C(F)(F)F)[nH]4)c3)ccc21
L-779450 (0.2 µM): Oc1cc(-c2nc(-c3ccccc3)[nH]c2-c2ccncc2)ccc1Cl
Src-I1 (2 µM): COc1cc2ncnc(Nc3ccc(Oc4ccccc4)cc3)c2cc1OC
GSK0660 (1 µM): COC(=O)c1sccc1S(=O)(=O)Nc1ccc(Nc2ccccc2)cc1OC
pioglitazone (2 µM): CCc1ccc(CCOc2ccc(CC3SC(=O)NC3=O)cc2)nc1 (configuration not stated)
PF-04217903 (1 µM): OCCn1cc(-c2cnc3nnn(Cc4ccc5ncccc5c4)c3n2)cn1

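Human melanoma cell lines in 1,536-well plates were treated with a pair of drugs for 72 h, then fixed, stained and imaged. Each value is the count of nuclei relative to DMSO-treated wells, in %, so that 100 equals the control. Every drug was used at one fixed concentration, the lower of two screened (a fifth of the higher). No replicate spread is given; individual values may be noisy.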 This is part of the screen, not chosen by result.

| Cell line | Src-I1 + PF-04217903 | CHIR-265 + Src-I1 | CHIR-265 + L-779450 | PF-04217903 + L-779450 | pioglitazone + PF-04217903 | GSK0660 + pioglitazone | CHIR-265 + GSK0660 |
|---|---|---|---|---|---|---|---|
| A101D | 103 | 60.0 | 56.9 | 99.6 | 90.1 | 118 | 62.4 |
| G-361 | 82.5 | 75.2 | 58.8 | 115 | 111 | 100 | 64.1 |
| IPC-298 | 98.1 | 61.0 | 52.4 | 85.3 | 101 | 97.4 | 60.6 |
| C32 | 107 | 82.5 | 82.4 | 105 | 89.8 | 101 | 89.8 |
| COLO 800 | 90.2 | 82.8 | 110 | 94.5 | 89.5 | 99.1 | 109 |
| LOX IMVI | 104 | 92.3 | 94.9 | 95.1 | 104 | 91.2 | 79.8 |
| A2058 | 108 | 100 | 91.7 | 108 | 98.9 | 99.1 | 71.6 |
| COLO 792 | 112 | 35.1 | 53.1 | 105 | 98.8 | 103 | 40.9 |
| A375 | 107 | 74.0 | 52.4 | 92.4 | 95.9 | 117 | 60.0 |
| IST-MEL1 | 104 | 102 | 97.2 | 102 | 98.7 | 105 | 86.4 |
| COLO 829 | 112 | 92.8 | 102 | 107 | 95.7 | 102 | 89.2 |
| MEL-HO | 99.2 | 78.0 | 74.7 | 85.3 | 109 | 110 | 82.8 |
| 501mel | 104 | 44.6 | 53.8 | 91.3 | 114 | 120 | 76.9 |
| LB2518-MEL | 119 | 55.7 | 43.4 | 86.5 | 88.7 | 94.6 | 52.9 |

Source: doi:10.1371/journal.pone.0140310, primary screening data, rounded.